Laboratory results as given in patent publication US4195018A (Nippon Kayaku Kabushiki Kaisha, priority 1977, dated 1980).

Experiment: general procedure: peptide synthesis; CCBT / N-methylmorpholine (Example 1); NEPIS, N-ethoxycarbonyl-2-ethoxy-1,2-dihy
Conditions: late stage modification step

In the case of “3-[(S)-1'-phenylethylamino]propylaminobleomycin”, the step yield (dihydrochloride (copper-containing form)) is reported as 92% yield, the step yield (dihydrochloride, monosulfate, diacetic acid salt, run 1) is reported as 75% yield and the step yield (dihydrochloride, monosulfate, diacetic acid salt, run 2) is reported as 56% yield. The step yield (dihydrochloride, monosulfate, diacetic acid salt, run 3) was 47% yield, the step yield (dihydrochloride, monosulfate, diacetic acid salt, run 4) was 12% yield and the step yield (dihydrochloride, monosulfate, diacetic acid salt, run 5) was 53% yield. The step yield (dihydrochloride, monosulfate, diacetic acid salt, run 6) was 46% yield, the step yield (dihydrochloride, monosulfate, diacetic acid salt, run 7) was 25% yield and the step yield (dihydrochloride, monosulfate, diacetic acid salt, run 8) was 90% yield. For the same substance, the step yield (dihydrochloride, monosulfate, diacetic acid salt, run 9) was 85% yield, the step yield (dihydrochloride, monosulfate, diacetic acid salt, run 10) was 63% yield and the step yield (dihydrochloride, monosulfate, diacetic acid salt, run 11) was 78% yield. For the same substance, the step yield (dihydrochloride, monosulfate, diacetic acid salt, run 12) was 73% yield, the step yield (dihydrochloride, monosulfate, diacetic acid salt, run 13) was 98% yield and the step yield (dihydrochloride, monosulfate, diacetic acid salt, run 14) was 96% yield. For the same substance, the step yield (dihydrochloride, monosulfate, diacetic acid salt, run 15) was 82% yield, the step yield (dihydrochloride, monosulfate, diacetic acid salt, run 16) was 96% yield and the step yield (monosulfate (copper-free form)) was 95% yield.
